# Laboratory results reported in PubChem BioAssay AID493014 (National Center for Advancing Translational Sciences (NCATS), 2011).
# In all, about 340,000 compounds went through this assay and about 170 (0.05%) were called active. Inconclusive means that the source gave no clear call. Such entries were picked first, then a sample of the others. The call rests on the fitted dose curve; in most records, active means well fitted inhibition curve with a large enough effect in the signal ratio, with a control signal flat (not every such curve was filed as active); inconclusive means small, poorly fitted or top-dose-only effect, or effect the other way, or a change in a side signal; inactive means flat fitted curve, though single readings scatter; the % refers to the signal ratio. A potency beside an inconclusive call is a rough fit, not a confirmed value.
# Assay: qHTS Assay to Find Inhibitors of Chronic Active B-Cell Receptor Signaling;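 on activity change, negative = inhibition: plate controls were basal doxycycline-induced cells for no effect and cells given 10 µM MG132 for full effect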
# Conditions: ABC-DLBCL IkBa-CBG/CBR reporter, luminescence ratio (green luciferase fused to IkBa over red control in TMD8 lymphoma cells), 4 h; activity change, negative = inhibition: at 46.1 µM (top of the series)
# Summary of the method: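 Cell line TMD8 (human ABC DLBCL), stably expressing tet-inducible CBG68-IkBa fusion and CBR; IMDM/0.5% FBS; cpd up to 46 uM; dox induction, 4 h, 37C/5% CO2; dual luminescence; green/red ratio; MG132 control.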
# Potency means the concentration at half of the fitted maximal effect.
Structure (SMILES),"activity change, negative = inhibition",Potency
COc1ccccc1N1CCN(CCCC(=O)c2ccc(F)cc2)CC1,inactive,–
COC(=O)Cn1c(C)nc2c(sc3nc(C)cc(C)c32)c1=O,inconclusive: 4.46%,–
O=C(COc1ccc2oc(-c3ccco3)cc(=O)c2c1)N1CCCCC1,inconclusive: 9.09%,–
Cc1nc(NC(=O)CSc2nc3ccccc3s2)sc1C(=O)N(C)C,inconclusive: -10.8%,–
COc1ccc(OCC(=O)NNC(=O)Cn2c(=O)cnc3ccccc32)cc1,inactive,–
CSCCC(NC(=O)COc1ccccc1)C(=O)OCC(=O)c1cc2ccccc2o1 (stereo unspecified),–,"inconclusive: 1.46 µM [falling, full curve]"
Cc1c(C(=O)C(=O)N2CCN(Cc3ccc4c(c3)OCO4)CC2)c2ccccc2n1C,–,"inconclusive: 2.51 µM [falling, full curve]"
COc1ccccc1C(=O)N/N=C/C(C)=C/c1ccccc1,–,"inconclusive: 0.316 µM [falling, full curve, poor fit]"
O=C(CN1CCN(Cc2ccc(Cl)cc2)C1=O)NCCCN1CCN(c2ccc(F)cc2)CC1,inactive,–
Cn1c(N)c(C(=O)COC(=O)CCCN2C(=O)c3ccccc3C2=O)c(=O)n(C)c1=O,–,"inconclusive: 8.91 µM [rising, partial curve, poor fit]"
Cn1nnnc1Sc1ccc(C(=O)O)cc1[N+](=O)[O-],inconclusive: -1.64%,–
COc1ccc(OC)c(NC(=O)CSC2=Nc3ccccc3C3=NC(CC(=O)NCc4ccc(F)cc4)C(=O)N23)c1 (stereo unspecified),inconclusive: 1.06%,–
CCn1cc(S(=O)(=O)Nc2ncccn2)cn1,inactive,–
CCN(C(=O)Cn1nnc(-c2ccccc2)n1)C1CCS(=O)(=O)C1 (stereo unspecified),–,"inconclusive: 16.4 µM [falling, partial curve, poor fit]"
CCOc1ccc(CCNc2ccc3nnc(-c4ccccc4)n3n2)cc1OCC,inconclusive: -12.3%,–
Cc1cc(C)c(C(=O)COC(=O)CCNS(=O)(=O)c2c(Cl)cccc2Cl)cc1C,inconclusive: 5.11%,–
COc1ccc(/C=N/NC(=O)CO/N=C(\C)c2cccs2)cc1,–,"inconclusive: 32.6 µM [falling, partial curve, poor fit]"
CC(C)Cc1nnc(NS(=O)(=O)Cc2ccccc2)s1,–,"inconclusive: 23.1 µM [falling, partial curve]"
Cc1ccnc(NS(=O)(=O)c2ccc(N=CC3=C(O)CC(C)(C)CC3=O)cc2)n1,inconclusive: 2.8%,–
CCOC(=O)N1CCC(N2CCN(S(=O)(=O)c3ccc(OC)cc3)CC2)CC1,inactive,–
Cc1noc(C)c1CSc1nnc2ccc3ccccc3n12,inconclusive: 2.31%,–
Oc1ccc(/C=N/NC(=S)NCc2ccco2)cc1,–,"inconclusive: 11.2 µM [falling, partial curve, poor fit]"
Cc1cc(Cl)c2oc(C(=O)NCC(C)(C)N3CCOCC3)c(C)c2c1,inconclusive: 10.2%,–
Cc1cc(C)c(NC(=S)NCCO)c(C)c1,inactive,–
O=C(Nc1ccc(-c2nc3ccccc3s2)c(OC(=O)c2ccccc2)c1)c1ccccc1,inconclusive: 10.4%,–
Fc1ccc2c(-c3cccc(C(F)(F)F)c3)c(-c3ccccc3)ncc2c1,inactive,–

# Laid out differently: four of the compounds above
Structure (SMILES) | activity change, negative = inhibition | Potency
CC(C)Cc1nnc(NS(=O)(=O)Cc2ccccc2)s1 | – | inconclusive: 23.1 µM [falling, partial curve]
Cc1ccnc(NS(=O)(=O)c2ccc(N=CC3=C(O)CC(C)(C)CC3=O)cc2)n1 | inconclusive: 2.8% | –
CCOC(=O)N1CCC(N2CCN(S(=O)(=O)c3ccc(OC)cc3)CC2)CC1 | inactive | –
Cc1noc(C)c1CSc1nnc2ccc3ccccc3n12 | inconclusive: 2.31% | –

# Carrying on.

Structure (SMILES),"activity change, negative = inhibition",Potency
COc1ccc([N+](=O)[O-])cc1N(CC(O)CN(CC(C)C)CC(C)C)S(=O)(=O)c1ccccc1 (stereo unspecified),inconclusive: 1.73%,–
CC(C)CNC(=O)c1oc2ccccc2c1COc1ccccc1,inactive,–
COC(=O)C1=C(C)N(Cc2ccccc2)C(=O)N[C@H]1c1cccc(C(F)(F)F)c1,inactive,–
COC(=O)C1CCN(C(=O)COC(=O)COc2ccc(C#N)cc2)CC1,inconclusive: 17.5%,–
COc1ccc(S(=O)(=O)N2CCOCC2)cc1NC(=O)CCc1cc(OC)c(OC)c(OC)c1,inconclusive: 2.47%,–
Cn1c(=O)c([N+](=O)[O-])c(NCCc2ccccc2)c2ccccc21,inconclusive: 6.87%,–
COc1cccc(NS(=O)(=O)c2ccc3[nH]cc(C(=O)NC4CC4)c(=O)c3c2)c1,–,"inconclusive: 6.51 µM [rising, full curve, poor fit]"
COc1ccc(NC(=O)c2cccc(F)c2)cc1Cl,–,"inconclusive: 20.6 µM [falling, single point]"
c1cnc(SCCOc2cccc3ccccc23)nc1,inconclusive: 15.9%,–
O=C(CSc1nc2cc(Cl)ccc2s1)c1ccco1,inconclusive: 3.65%,–
Cn1c(NC(=O)c2ccc(F)cc2)nc2ccccc21,–,"inconclusive: 15.8 µM [falling, single point]"
CCCc1[nH]n(-c2ccc([N+](=O)[O-])cc2)c(=O)c1C=NCCCn1ccnc1,inconclusive: -12%,–
COC(=O)c1cccc(NC(=S)Nc2cc(Cl)ccc2OC)c1,inconclusive: 8.29%,–
CCCNc1nc(Nc2ccc(C)cc2)nc(N2CCCC2)n1,–,"inconclusive: 16.4 µM [rising, partial curve, poor fit]"
CCN(CC(=O)NC(C)(C)C)C(=O)c1ccc(Br)cc1,–,"inconclusive: 5.62 µM [falling, single point]"
CCCC1CCC(c2ccc(OCC)cc2)=CC1=O (stereo unspecified),inactive,–
CC1Oc2ccccc2C=C1/C=N/Nc1ccc(C(=O)O)cc1 (stereo unspecified),inconclusive: 246%,–
C=CCNc1nc(NCC)nc(N2CCOCC2)n1,inconclusive: 7.17%,–
COc1ccc(CN2CCC(C(=O)c3cccc(Cl)c3)CC2)cc1,inactive,–
Cc1c(CCC(=O)N[C@@H](C)C(=O)O)c(=O)oc2c(C)c3oc4c(c3cc12)CCCC4,–,"inconclusive: 10 µM [falling, partial curve, poor fit]"
COc1ccc(C(=O)NCc2ccc(-c3nc4ccccc4s3)cc2)cc1,inconclusive: 19.6%,–
COc1ccc(C(=O)Nc2ccc(S(=O)(=O)N3CCCC3)cc2)c(OC)c1,–,"inconclusive: 5.17 µM [falling, partial curve, poor fit]"
CCOc1cc(NC(=O)c2ccco2)c(OCC)cc1NC(=O)c1ccco1,inactive,–
CCCCn1c(SCC(N)=O)nc2sc3c(c2c1=O)CCC3,inconclusive: -3.22%,–
COc1cc(C(=O)NC2CCN(CC(=O)Nc3cccc(C)c3C)CC2)cc(OC)c1OC,inconclusive: 0.135%,–
